# Measured values as given in the supplement of paper PMC12819154, “High-throughput peptide-centric local stability assay extends protein–ligand identification to membrane proteins, tissues and bacteria” (Nature Structural & Molecular Biology, 2025).
# The chains behind the UniProt entries cited, without tags or fusion partners. Where a name states a change or a piece, a line headed by the entry shows the natural chain unless it says otherwise.
# UniProt Q0VD83: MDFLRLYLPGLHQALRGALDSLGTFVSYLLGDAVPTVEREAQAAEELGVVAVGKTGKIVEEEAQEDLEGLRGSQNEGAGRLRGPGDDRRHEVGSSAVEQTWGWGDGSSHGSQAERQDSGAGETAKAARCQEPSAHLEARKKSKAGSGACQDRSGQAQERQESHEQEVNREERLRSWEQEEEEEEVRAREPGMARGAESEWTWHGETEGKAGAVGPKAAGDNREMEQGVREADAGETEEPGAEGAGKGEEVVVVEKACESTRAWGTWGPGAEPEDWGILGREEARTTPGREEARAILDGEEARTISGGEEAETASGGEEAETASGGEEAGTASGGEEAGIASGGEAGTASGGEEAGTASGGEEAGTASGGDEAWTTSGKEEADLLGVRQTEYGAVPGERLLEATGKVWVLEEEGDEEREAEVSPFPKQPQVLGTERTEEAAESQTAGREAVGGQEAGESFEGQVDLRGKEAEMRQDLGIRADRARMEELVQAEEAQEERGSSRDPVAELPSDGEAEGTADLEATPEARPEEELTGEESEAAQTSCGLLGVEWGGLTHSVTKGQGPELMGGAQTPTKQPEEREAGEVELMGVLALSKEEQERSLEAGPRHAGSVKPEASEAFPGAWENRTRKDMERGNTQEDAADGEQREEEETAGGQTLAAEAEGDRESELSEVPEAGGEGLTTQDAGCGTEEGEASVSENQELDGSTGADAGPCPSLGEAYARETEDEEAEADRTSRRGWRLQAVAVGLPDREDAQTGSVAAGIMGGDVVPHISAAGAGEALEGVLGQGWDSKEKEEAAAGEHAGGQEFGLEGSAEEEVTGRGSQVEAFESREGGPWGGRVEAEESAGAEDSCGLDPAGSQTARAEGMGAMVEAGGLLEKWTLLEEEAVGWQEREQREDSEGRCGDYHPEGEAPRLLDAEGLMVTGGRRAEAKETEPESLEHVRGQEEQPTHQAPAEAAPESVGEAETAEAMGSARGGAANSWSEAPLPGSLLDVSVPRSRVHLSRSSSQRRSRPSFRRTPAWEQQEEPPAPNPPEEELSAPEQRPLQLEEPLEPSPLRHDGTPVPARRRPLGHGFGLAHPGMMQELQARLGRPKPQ
# UniProt Q13033: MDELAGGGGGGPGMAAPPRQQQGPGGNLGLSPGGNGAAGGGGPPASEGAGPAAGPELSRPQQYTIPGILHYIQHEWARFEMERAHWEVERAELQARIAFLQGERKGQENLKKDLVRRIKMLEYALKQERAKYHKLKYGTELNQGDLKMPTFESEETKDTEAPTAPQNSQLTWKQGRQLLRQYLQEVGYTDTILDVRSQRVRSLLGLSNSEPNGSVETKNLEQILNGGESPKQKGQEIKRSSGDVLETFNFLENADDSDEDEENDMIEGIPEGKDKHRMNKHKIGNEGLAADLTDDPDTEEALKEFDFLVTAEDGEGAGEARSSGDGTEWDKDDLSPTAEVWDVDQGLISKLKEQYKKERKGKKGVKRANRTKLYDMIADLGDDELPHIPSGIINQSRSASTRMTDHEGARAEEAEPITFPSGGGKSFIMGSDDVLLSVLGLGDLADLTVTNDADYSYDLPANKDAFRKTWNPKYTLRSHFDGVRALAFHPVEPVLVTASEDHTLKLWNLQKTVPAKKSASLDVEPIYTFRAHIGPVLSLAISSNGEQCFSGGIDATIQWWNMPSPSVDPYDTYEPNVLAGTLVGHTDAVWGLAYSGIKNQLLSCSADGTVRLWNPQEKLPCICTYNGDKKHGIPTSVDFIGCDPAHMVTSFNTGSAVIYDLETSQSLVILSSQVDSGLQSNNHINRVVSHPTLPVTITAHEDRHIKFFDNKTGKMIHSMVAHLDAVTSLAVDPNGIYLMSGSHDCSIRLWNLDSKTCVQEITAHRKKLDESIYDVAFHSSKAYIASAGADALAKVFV
# UniProt Q07866: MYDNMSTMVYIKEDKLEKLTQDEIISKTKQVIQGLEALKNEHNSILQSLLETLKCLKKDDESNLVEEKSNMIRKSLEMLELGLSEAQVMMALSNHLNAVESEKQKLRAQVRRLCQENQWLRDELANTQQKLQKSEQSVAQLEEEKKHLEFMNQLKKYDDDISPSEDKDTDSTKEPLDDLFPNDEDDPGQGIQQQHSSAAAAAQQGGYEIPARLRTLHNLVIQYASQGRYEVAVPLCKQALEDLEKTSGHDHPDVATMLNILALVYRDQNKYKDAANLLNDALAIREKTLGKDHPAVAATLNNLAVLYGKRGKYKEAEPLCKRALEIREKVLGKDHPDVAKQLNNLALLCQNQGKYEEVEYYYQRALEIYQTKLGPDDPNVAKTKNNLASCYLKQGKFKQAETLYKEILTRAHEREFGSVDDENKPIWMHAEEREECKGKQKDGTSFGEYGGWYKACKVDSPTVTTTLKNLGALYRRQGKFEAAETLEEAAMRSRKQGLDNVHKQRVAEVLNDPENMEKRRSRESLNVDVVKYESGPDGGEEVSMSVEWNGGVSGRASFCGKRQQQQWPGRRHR
# UniProt Q13015: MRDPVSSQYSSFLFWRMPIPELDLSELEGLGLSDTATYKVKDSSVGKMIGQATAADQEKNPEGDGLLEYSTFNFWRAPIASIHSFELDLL
# UniProt Q01081: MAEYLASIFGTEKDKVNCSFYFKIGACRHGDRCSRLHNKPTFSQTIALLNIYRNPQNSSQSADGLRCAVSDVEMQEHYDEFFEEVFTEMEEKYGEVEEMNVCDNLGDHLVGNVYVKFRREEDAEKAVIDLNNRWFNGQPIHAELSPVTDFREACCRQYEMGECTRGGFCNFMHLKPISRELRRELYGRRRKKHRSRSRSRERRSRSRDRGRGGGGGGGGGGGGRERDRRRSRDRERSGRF
# UniProt Q00796: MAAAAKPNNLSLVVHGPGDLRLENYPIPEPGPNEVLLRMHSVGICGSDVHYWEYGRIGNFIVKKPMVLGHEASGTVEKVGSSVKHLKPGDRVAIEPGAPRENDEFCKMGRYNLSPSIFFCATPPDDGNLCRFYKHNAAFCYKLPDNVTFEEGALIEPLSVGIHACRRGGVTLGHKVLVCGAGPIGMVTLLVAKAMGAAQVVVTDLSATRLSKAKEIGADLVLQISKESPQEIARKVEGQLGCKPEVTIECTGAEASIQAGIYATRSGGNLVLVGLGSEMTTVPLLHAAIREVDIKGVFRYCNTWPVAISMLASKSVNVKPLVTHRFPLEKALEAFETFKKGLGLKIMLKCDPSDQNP
# UniProt Q03468, whole entry: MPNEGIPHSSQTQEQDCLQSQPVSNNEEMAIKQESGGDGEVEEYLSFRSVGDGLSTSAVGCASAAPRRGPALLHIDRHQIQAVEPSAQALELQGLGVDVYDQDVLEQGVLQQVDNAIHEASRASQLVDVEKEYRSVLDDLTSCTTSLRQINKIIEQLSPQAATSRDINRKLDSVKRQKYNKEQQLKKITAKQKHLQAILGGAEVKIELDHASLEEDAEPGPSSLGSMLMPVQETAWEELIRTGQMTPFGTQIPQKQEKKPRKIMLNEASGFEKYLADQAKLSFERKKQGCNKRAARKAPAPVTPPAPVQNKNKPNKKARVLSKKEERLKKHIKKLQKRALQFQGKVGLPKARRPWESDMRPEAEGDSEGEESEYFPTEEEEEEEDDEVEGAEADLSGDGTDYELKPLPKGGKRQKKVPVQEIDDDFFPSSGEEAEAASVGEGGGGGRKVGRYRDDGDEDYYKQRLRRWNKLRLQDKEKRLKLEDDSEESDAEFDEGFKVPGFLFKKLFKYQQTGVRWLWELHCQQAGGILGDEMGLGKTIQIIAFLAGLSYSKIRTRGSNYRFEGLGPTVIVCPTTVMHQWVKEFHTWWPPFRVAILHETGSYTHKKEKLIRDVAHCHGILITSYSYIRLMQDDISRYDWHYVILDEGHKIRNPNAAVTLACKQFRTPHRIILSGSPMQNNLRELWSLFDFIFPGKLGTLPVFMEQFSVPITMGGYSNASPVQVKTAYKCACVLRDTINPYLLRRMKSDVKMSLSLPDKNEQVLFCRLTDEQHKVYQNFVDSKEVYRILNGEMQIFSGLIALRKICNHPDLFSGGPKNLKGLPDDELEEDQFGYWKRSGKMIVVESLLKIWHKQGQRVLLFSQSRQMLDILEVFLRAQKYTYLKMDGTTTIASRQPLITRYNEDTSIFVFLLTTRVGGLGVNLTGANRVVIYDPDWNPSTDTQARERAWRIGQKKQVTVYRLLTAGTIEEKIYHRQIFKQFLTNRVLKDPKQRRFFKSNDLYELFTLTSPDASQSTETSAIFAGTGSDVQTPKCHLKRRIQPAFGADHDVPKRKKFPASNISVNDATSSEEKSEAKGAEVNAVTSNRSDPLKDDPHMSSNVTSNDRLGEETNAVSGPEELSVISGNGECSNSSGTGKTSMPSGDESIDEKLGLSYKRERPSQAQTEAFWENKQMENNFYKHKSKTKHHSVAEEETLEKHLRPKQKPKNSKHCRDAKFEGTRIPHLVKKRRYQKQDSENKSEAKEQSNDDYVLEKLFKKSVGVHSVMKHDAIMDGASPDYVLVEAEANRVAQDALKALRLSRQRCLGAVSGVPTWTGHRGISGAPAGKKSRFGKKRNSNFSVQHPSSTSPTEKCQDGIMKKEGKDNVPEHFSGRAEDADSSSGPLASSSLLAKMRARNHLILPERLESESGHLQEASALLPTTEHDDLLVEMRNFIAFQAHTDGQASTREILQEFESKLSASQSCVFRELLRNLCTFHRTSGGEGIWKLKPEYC
# UniProt Q03060: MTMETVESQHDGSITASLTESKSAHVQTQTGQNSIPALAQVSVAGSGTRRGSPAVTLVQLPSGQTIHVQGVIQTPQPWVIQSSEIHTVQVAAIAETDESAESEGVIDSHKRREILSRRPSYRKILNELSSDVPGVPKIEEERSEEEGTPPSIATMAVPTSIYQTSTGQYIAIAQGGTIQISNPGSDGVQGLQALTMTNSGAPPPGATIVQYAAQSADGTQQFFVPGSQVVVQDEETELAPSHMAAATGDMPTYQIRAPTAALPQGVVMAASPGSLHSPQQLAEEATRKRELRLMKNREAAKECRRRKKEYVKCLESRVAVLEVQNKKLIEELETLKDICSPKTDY
# UniProt Q08ER8: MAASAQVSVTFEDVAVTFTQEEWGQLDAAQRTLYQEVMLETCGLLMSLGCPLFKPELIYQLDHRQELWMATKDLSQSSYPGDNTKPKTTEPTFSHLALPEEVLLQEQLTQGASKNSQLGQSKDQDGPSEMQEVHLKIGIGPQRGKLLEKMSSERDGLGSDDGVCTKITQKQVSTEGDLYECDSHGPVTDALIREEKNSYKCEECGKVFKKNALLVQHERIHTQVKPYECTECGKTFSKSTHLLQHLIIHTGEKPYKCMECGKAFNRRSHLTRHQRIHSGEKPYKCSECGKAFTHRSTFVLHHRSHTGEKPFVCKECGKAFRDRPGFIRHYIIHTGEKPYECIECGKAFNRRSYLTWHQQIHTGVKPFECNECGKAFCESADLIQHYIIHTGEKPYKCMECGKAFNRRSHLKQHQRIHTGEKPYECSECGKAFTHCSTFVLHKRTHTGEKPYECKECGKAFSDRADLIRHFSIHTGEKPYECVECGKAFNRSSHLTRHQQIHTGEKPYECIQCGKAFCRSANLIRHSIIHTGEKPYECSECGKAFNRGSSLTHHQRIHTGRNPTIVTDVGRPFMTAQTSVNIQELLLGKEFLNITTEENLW
# UniProt Q02539, whole entry: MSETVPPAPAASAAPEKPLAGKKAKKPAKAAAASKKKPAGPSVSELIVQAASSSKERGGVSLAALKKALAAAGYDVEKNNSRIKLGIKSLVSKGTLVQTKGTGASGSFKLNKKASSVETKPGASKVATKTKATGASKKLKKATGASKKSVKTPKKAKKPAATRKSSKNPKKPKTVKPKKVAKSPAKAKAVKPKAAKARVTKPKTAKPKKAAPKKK
# UniProt Q01813: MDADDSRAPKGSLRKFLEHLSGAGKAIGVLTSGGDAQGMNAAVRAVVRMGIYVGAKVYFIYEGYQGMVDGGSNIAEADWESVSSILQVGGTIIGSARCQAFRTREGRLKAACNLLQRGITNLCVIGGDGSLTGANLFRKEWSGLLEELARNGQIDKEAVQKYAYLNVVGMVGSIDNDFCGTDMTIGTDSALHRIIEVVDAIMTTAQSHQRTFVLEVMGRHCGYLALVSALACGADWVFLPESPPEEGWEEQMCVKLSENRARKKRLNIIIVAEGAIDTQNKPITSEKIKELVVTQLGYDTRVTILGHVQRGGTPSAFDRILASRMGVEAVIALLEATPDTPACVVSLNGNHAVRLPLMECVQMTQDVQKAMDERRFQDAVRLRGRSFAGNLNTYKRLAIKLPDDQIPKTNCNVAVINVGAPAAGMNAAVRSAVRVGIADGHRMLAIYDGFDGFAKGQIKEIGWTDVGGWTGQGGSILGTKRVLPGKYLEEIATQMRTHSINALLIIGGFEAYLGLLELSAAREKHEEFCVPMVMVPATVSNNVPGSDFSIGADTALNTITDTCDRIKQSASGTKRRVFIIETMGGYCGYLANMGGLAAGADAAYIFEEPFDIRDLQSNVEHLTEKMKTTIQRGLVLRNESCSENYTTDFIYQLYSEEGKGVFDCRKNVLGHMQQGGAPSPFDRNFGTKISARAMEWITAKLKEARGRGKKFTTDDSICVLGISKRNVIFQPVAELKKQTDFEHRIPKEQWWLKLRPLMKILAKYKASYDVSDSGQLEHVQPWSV
# The list shows a part of the results. Most entries show no effect beyond the scatter of the controls.
# Compound: CN[C@@H]1C[C@H]2O[C@@](C)([C@@H]1OC)n1c3ccccc3c3c4c(c5c6ccccc6n2c5c31)C(=O)NC4 [staurosporine]
# Test: log2 fold change of tryptic peptide abundance, ligand vs vehicle (limited proteolysis) (log2 ratio); higher = more trypsin-susceptible (destabilized)
# Settings: ligand concentration: 20 uM; sample: K562 cleared lysate; digestion: 4 min, 22 C (HT-PELSA RT4min, Orbitrap Astral)
row,Target,log2 fold change
1,"FANCC (peptide sequence: NMVLSLASELR, peptide start residue: 152) (UniProt Q00597)",-0.0898
2,"ASPH (peptide sequence: GLFLPEDENLR, peptide start residue: 610) (UniProt Q12797)",-0.255
3,"FPGS (peptide sequence: IRINGQPISPELFTK, peptide start residue: 140) (UniProt Q05932)",-0.538
4,"CTDSPL2 (peptide sequence: EHCVCVQGNYIK, peptide start residue: 377) (UniProt Q05D32)",-0.527
5,"GSTM4 (peptide sequence: FLPKPLYTR, peptide start residue: 203) (UniProt Q03013)",0.234
6,"ANK3 (peptide sequence: VMELLLK, peptide start residue: 386) (UniProt Q12955)",-0.352
7,"UniProt Q0VD83 (peptide sequence: LLDAEGLMVTGGR, peptide start residue: 916)",0.209
8,"BPTF (peptide sequence: MTSIEREEK, peptide start residue: 978) (UniProt Q12830)",1.13
9,"STRN3 (peptide sequence: SLLGLSNSEPNGSVETK, peptide start residue: 202) (UniProt Q13033)",-0.198
10,"ILF3 (peptide sequence: SIGTANRPMGAGEALR, peptide start residue: 258) (UniProt Q12906)",0.457
11,"KLC1 (peptide sequence: EAEPLCKR, peptide start residue: 315) (UniProt Q07866)",0.18
12,"SCAP (peptide sequence: QLAVRPSTPHTITLQPSSFR, peptide start residue: 477) (UniProt Q12770)",-0.178
13,"RBM10 (peptide sequence: RESATADAGYAILEK, peptide start residue: 685) (UniProt P98175)",-0.58
14,"REST (peptide sequence: KPSNNVSVIQVTTR, peptide start residue: 478) (UniProt Q13127)",-0.576
15,"PPP1R8 (peptide sequence: RVFLIDLNSTHGTFLGHIR, peptide start residue: 82) (UniProt Q12972)",-0.425
16,"DEUP1 (peptide sequence: IGECQNAQGNK, peptide start residue: 300) (UniProt Q05D60)",-0.397
17,"UniProt P86791 (peptide sequence: MSGSEKEPQFK, peptide start residue: 367)",0.494
18,"SLC25A3 (peptide sequence: GVAPLWMR, peptide start residue: 219) (UniProt Q00325)",0.198
19,"GBE1 (peptide sequence: KGNNESYHYAR, peptide start residue: 554) (UniProt Q04446)",-0.135
20,"TNFAIP2 (peptide sequence: KGQPSSAEPEDAAGSR, peptide start residue: 54) (UniProt Q03169)",-0.321

row,Target,log2 fold change
1,"CSTF1 (peptide sequence: NLLSLGHNNIVR, peptide start residue: 390) (UniProt Q05048)",-0.562
2,"MLLT11 (peptide sequence: MIGQATAADQEK, peptide start residue: 48) (UniProt Q13015)",-0.354
3,"UniProt Q06732 (peptide sequence: SSLTVHHR, peptide start residue: 705)",0.231
4,"EWSR1 (peptide sequence: AAVEWFDGKDFQGSK, peptide start residue: 425) (UniProt Q01844)",-0.14
5,"DAB2 (peptide sequence: IWVNISLSGIK, peptide start residue: 93) (UniProt P98082)",-0.187
6,"U2AF1 (peptide sequence: EACCRQYEMGECTR, peptide start residue: 152) (UniProt Q01081)",-0.468
7,"UniProt Q12905 (peptide sequence: ILSHGGFRK, peptide start residue: 320)",0.48
8,"NFX1 (peptide sequence: GKQNHVLK, peptide start residue: 331) (UniProt Q12986)",0.727
9,"SORD (peptide sequence: ALEAFETFKK, peptide start residue: 331) (UniProt Q00796)",0.0641
10,"ERCC6 (peptide sequence: HLQAILGGAEVK, peptide start residue: 194) (UniProt Q03468)",0.285
11,"CREM (peptide sequence: KILNELSSDVPGVPK, peptide start residue: 123) (UniProt Q03060)",-0.2
12,"UniProt Q00341 (peptide sequence: TIIGQKGER, peptide start residue: 521)",0.38
13,"MBTD1 (peptide sequence: VFWIAGIVK, peptide start residue: 191) (UniProt Q05BQ5)",-0.278
14,"UniProt Q08ER8 (peptide sequence: DGLGSDDGVCTK, peptide start residue: 155)",0.512
15,"IRF9 (peptide sequence: YKEGDTGGPAVWK, peptide start residue: 69) (UniProt Q00978)",-0.29
16,"UniProt Q02539 (peptide sequence: GTGASGSFKLNK, peptide start residue: 98)",0.71
17,"SSRP1 (peptide sequence: IKSDHPGISITDLSKK, peptide start residue: 565) (UniProt Q08945)",0.237
18,"OCRL (peptide sequence: FEIPDEEHCLK, peptide start residue: 96) (UniProt Q01968)",-0.679
19,"PFKP (peptide sequence: LNIIIVAEGAIDTQNKPITSEKIK, peptide start residue: 266) (UniProt Q01813)",-0.447

# Rewritten tab-delimited: part of the list above.
row	Target	log2 fold change
4	EWSR1 (peptide sequence: AAVEWFDGKDFQGSK, peptide start residue: 425) (UniProt Q01844)	-0.14
5	DAB2 (peptide sequence: IWVNISLSGIK, peptide start residue: 93) (UniProt P98082)	-0.187
